Data as given in the supplement of paper PMC6411743.
± gives the standard deviation of the averaged measurements. This is a selection; strong and weak results do not stand in their true shares.

Legend:
Assay in all cases: NP40-soluble protein abundance relative to vehicle (solubility fold change) (ratio); higher = more soluble protein in presence of AMP-PNP
[1] = target: T1, UniProt Q8WX93 and related entries
T1 sequence (whole entry): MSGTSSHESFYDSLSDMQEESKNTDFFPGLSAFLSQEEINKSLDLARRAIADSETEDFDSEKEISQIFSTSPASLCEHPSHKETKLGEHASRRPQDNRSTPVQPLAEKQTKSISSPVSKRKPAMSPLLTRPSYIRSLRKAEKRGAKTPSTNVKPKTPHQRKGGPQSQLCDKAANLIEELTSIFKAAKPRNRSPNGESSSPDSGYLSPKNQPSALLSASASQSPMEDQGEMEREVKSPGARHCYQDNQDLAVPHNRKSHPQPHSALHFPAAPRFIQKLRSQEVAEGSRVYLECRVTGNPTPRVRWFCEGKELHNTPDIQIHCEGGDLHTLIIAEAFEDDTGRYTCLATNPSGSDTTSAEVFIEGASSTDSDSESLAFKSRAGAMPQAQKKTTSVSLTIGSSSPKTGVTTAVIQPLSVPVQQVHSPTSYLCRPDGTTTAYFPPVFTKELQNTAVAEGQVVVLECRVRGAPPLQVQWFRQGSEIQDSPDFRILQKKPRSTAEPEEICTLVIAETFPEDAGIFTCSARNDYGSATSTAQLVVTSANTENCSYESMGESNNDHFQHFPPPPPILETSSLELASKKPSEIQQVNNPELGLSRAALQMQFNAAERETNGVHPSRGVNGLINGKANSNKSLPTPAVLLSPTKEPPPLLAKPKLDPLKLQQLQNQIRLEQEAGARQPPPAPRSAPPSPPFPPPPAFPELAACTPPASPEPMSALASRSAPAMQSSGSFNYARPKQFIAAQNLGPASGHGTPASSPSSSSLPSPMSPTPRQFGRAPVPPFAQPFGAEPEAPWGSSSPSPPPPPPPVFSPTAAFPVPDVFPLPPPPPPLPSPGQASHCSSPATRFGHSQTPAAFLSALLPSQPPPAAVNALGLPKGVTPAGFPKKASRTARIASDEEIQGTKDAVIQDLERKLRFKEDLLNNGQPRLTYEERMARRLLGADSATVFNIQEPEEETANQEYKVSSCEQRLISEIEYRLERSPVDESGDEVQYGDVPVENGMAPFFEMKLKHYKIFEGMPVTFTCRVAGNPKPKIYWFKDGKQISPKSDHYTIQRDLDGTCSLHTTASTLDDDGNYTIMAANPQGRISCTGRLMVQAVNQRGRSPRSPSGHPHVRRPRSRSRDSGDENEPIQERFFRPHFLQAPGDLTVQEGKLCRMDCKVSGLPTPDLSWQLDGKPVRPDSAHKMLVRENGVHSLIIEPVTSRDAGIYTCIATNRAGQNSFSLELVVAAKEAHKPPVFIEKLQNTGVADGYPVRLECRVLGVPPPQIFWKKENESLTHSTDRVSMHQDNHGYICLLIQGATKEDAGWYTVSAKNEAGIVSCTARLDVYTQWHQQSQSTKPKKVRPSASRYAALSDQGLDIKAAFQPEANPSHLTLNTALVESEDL
Summary of the method: (§1)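 Jurkat crude lysate prepared with a Dounce homogeniser was treated at eight concentrations spanning 0.1 to 10 mM, 10 min at room temperature then 3 min at 37 °C. Solubilisation with 0.8% NP40 and benzonase and ultracentrifugation preceded TMT labelling of the supernatant for LC-MS/MS. Fold change against the detergent-processed vehicle was determined per replicate from vsn-normalised intensities, across three independent experiments.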

[2] = target: T2, UniProt Q8WYQ5 and related entries
T2 sequence (whole entry): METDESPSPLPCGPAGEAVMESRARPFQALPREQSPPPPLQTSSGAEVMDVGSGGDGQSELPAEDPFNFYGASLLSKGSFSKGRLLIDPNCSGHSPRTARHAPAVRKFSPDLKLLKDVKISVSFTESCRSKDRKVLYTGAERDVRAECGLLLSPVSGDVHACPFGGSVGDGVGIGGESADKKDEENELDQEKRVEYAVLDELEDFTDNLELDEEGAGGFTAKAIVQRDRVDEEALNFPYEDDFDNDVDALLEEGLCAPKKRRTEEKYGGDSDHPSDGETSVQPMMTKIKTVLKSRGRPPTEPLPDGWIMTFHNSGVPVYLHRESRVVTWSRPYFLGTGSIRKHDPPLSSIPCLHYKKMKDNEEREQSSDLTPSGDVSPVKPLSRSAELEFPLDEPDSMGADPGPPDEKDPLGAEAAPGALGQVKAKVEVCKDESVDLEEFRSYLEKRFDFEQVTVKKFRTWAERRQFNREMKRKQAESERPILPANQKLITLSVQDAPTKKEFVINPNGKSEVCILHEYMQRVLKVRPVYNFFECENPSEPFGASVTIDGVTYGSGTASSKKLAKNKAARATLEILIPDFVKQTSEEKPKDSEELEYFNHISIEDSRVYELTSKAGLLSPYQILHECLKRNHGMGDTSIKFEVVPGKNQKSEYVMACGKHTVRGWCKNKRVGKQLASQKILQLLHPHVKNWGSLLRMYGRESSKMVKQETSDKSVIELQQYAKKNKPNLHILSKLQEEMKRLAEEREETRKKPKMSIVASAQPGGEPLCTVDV
Summary of the method: as §1

[3] = target: T3, UniProt Q92581-2|Q92581-3|Q92581
T3 sequence (whole entry): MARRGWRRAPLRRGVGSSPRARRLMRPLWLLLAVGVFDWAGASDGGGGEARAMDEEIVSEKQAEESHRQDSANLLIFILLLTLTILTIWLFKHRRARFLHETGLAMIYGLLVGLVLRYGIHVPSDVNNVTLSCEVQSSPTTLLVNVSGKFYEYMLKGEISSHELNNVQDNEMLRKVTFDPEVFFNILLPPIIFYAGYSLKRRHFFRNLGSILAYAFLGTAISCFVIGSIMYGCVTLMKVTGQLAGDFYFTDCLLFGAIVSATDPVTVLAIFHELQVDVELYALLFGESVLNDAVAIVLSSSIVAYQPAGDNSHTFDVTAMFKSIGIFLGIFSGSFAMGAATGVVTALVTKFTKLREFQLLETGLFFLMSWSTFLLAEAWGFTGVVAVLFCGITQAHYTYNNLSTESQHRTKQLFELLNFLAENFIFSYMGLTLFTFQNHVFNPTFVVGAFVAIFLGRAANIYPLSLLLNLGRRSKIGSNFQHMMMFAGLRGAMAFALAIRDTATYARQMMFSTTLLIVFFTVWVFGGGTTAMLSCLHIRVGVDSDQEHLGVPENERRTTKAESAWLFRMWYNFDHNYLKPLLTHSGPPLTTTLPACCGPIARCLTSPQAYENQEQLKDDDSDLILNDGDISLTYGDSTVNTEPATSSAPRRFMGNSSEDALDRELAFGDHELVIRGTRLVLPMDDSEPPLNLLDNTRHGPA
Summary of the method: as §1

[4] = target: T4, UniProt Q92851 and related entries
T4 sequence (whole entry): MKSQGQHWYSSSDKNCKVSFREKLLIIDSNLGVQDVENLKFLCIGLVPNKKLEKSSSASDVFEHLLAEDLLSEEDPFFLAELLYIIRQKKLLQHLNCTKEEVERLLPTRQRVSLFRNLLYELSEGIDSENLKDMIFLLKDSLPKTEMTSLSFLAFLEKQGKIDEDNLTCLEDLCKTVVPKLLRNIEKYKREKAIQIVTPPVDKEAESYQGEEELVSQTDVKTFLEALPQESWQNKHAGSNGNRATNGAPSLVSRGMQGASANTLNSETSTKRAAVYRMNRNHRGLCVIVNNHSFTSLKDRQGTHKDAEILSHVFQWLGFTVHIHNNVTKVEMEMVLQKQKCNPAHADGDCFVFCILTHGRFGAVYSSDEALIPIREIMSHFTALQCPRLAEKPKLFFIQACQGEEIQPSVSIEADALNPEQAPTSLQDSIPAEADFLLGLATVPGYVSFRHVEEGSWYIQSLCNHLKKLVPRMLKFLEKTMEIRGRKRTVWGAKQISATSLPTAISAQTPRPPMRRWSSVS
Summary of the method: as §1

[5] = target: T5, UniProt Q92896 and related entries
T5 sequence (whole entry): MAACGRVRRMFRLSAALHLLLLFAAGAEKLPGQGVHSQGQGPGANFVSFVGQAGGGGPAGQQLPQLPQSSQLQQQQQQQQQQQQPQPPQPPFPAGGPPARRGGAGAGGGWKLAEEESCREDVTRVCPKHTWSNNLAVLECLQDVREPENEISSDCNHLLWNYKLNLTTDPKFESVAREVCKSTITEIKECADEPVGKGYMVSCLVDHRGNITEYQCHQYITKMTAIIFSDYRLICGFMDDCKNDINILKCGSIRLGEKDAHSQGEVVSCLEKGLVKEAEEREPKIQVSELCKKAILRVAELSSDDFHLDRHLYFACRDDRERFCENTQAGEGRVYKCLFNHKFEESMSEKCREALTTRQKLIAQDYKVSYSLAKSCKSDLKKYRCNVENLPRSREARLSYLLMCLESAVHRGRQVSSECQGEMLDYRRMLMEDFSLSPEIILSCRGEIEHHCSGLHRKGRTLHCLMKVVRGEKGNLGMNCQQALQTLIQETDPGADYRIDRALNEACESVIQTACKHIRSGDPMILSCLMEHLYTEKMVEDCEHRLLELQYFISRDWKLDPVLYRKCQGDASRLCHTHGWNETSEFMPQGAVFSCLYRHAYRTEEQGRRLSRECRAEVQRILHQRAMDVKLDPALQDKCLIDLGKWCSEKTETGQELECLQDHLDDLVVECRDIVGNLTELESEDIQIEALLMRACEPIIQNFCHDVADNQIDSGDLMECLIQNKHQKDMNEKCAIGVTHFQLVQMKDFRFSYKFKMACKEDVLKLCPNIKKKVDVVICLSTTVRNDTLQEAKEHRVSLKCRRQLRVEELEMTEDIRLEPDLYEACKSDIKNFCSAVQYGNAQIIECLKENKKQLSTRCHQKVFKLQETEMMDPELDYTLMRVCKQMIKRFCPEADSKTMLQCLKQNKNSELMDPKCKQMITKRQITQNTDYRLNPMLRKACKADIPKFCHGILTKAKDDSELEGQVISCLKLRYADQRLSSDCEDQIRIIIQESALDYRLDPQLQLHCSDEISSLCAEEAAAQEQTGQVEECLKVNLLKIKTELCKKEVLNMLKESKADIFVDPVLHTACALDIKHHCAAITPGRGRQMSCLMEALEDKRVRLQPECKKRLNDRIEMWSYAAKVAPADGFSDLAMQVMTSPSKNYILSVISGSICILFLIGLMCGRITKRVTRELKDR
Summary of the method: as §1

[6] = target: T6, WASF1 (UniProt Q92558)
T6 sequence (whole entry): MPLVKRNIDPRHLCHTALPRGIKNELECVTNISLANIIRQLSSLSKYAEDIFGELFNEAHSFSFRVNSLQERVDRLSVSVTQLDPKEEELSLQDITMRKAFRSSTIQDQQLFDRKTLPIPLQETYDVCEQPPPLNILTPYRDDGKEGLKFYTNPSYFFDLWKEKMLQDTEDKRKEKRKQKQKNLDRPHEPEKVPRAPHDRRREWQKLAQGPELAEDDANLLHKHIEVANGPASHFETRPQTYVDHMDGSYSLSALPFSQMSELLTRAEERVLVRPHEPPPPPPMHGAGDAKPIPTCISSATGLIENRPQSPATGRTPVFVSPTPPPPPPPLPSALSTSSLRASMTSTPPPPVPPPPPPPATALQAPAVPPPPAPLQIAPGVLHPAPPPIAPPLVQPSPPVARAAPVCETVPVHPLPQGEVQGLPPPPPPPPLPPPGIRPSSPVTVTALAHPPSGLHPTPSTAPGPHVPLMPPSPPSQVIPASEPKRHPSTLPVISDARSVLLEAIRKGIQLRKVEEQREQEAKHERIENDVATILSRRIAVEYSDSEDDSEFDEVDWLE
Summary of the method: as §1

`Nc1ncnc2c1ncn2[C@@H]1O[C@H](COP(=O)(O)OP(=O)(O)NP(=O)(O)O)[C@@H](O)[C@H]1O` [adenylyl imidodiphosphate] was tested, and the NP40-soluble protein abundance ([1]; concentration: 2mM) was 1.1 ± 0.099, the NP40-soluble protein abundance ([1]; concentration: 4mM) was 1.04 ± 0.032 and the NP40-soluble protein abundance ([1]; concentration: 6mM) was 1.02 ± 0.03. It also gave an NP40-soluble protein abundance ([1]; concentration: 8mM) of 1 ± 0.039, an NP40-soluble protein abundance ([1]; concentration: 10mM) of 1.03 ± 0.043 and an NP40-soluble protein abundance ([2]; concentration: 1mM) of 1.08 ± 0.016. The NP40-soluble protein abundance ([2]; concentration: 2mM) was 1.01 ± 0.016, the NP40-soluble protein abundance ([2]; concentration: 4mM) was 1.04 ± 0.021 and the NP40-soluble protein abundance ([2]; concentration: 6mM) was 1.05 ± 0.071. The NP40-soluble protein abundance ([2]; concentration: 8mM) was 1.03 ± 0.051, the NP40-soluble protein abundance ([2]; concentration: 10mM) was 1.05 ± 0.055 and the NP40-soluble protein abundance ([3]; concentration: 1mM) was 0.999 ± 0.012. The NP40-soluble protein abundance ([3]; concentration: 2mM) was 0.9876 ± 0.0034, the NP40-soluble protein abundance ([3]; concentration: 4mM) was 0.957 ± 0.028 and the NP40-soluble protein abundance ([3]; concentration: 6mM) was 0.9812 ± 0.0025. For the same molecule, the NP40-soluble protein abundance ([3]; concentration: 8mM) was 0.979 ± 0.025, the NP40-soluble protein abundance ([3]; concentration: 10mM) was 0.96 ± 0.026 and the NP40-soluble protein abundance ([4]; concentration: 1mM) was 1.01 ± 0.049. It also gave an NP40-soluble protein abundance ([4]; concentration: 2mM) of 0.999 ± 0.029, an NP40-soluble protein abundance ([4]; concentration: 4mM) of 1.03 ± 0.017 and an NP40-soluble protein abundance ([4]; concentration: 6mM) of 0.9904 ± 0.0072. For the same molecule, the NP40-soluble protein abundance ([4]; concentration: 8mM) was 0.999 ± 0.024, the NP40-soluble protein abundance ([4]; concentration: 10mM) was 0.982 ± 0.026 and the NP40-soluble protein abundance ([5]; concentration: 1mM) was 1.01 ± 0.021. It also gave an NP40-soluble protein abundance ([5]; concentration: 2mM) of 1.06 ± 0.098, an NP40-soluble protein abundance ([5]; concentration: 4mM) of 1.01 ± 0.039 and an NP40-soluble protein abundance ([5]; concentration: 6mM) of 1.02 ± 0.021. The NP40-soluble protein abundance ([5]; concentration: 8mM) was 0.993 ± 0.017, the NP40-soluble protein abundance ([5]; concentration: 10mM) was 1.03 ± 0.017 and the NP40-soluble protein abundance ([6]; concentration: 1mM) was 1.05 ± 0.017. It also gave an NP40-soluble protein abundance ([6]; concentration: 2mM) of 1.16 ± 0.091, an NP40-soluble protein abundance ([6]; concentration: 4mM) of 1.05 ± 0.02 and an NP40-soluble protein abundance ([6]; concentration: 6mM) of 1.04 ± 0.061. It also gave an NP40-soluble protein abundance ([6]; concentration: 8mM) of 0.976 ± 0.039 and an NP40-soluble protein abundance ([6]; concentration: 10mM) of 1.05 ± 0.051.
